Test results from PubChem BioAssay AID248 (DTP/NCI, 2004).
The list does not hold the whole screen: it is rich in T/C values a quarter to a half above the control, in often repeated tests (any T/C) and in doses without a T/C. Other doses and runs of a compound stand elsewhere. T/C gives the treated animals as a percentage of the vehicle group. Some doses have a count of surviving animals in place of a T/C: the source holds a T/C of zero for them, seemingly a mark for toxic or unscored doses. Some doses without a T/C left all or most animals alive at the check, yet need not have been tolerated: survival well below the control is almost never listed, so the zero probably covers shortened survival too. Counts of survivors are from the toxicity check (mostly the fifth day) where no day follows; animals may have died later. Schedule codes are those of the source, read here as Q, the interval in days (D) or hours (H), X, the number of doses. Where survival is the endpoint, this PubChem deposit counts one and a half times the control or more as active, and values a quarter to a half above the control carry no call in these data; other NCI protocols may use other cut-offs. Some schedules carry Z or #; the key to these is not given. Some entries were tested several times; their values stand side by side, smallest first. Some T/C values are followed by the survivors on the day toxicity was checked, most often the fifth; where none is given, no animal had died by that day.

System: L1210 leukemia ip in BDF1 mice, survival T/C
Assay: NCI In Vivo Anticancer Drug Screen. Data for tumor model L1210 Leukemia (intraperitoneal) in B6D2F1 (BDF1) mice
Conditions: T/C endpoint: mean survival time, higher T/C = longer survival
[1] = dose: 100.0 mg/kg/injection, schedule: Q01DX009 (ip), vehicle: saline
[2] = dose: 400.0 mg/kg/injection, schedule: Q04DX002 (ip), vehicle: saline with Tween-80
[3] = dose: 400.0 mg/kg/injection, schedule: Q04DX003 (ip), vehicle: saline
[4] = dose: 200.0 mg/kg/injection, schedule: Q01DX001 (ip), vehicle: saline
[5] = dose: 400.0 mg/kg/injection, schedule: Q01DX001 (ip), vehicle: saline

For `O=C(Nc1ccc(F)cc1)Oc1ccc2ccccc2c1`, the survivor count (dose: 400.0 mg/kg/injection, schedule: Q04DX002 (ip), vehicle: carboxymethylcellulose (CMC)) was 3 of 3.

For `O=NN(CC(F)(F)F)C(=O)NCC(F)(F)F`, the survivor count (dose: 750.0 mg/kg/injection, schedule: Q01DX001 (ip), vehicle: other) was 0 of 6, the survivor count (dose: 1000.0 mg/kg/injection, schedule: Q01DX001 (ip), vehicle: other) was 0 of 6 and the survivor count (dose: 1250.0 mg/kg/injection, schedule: Q01DX001 (ip), vehicle: other) was 0 of 6. For the same compound, the survivor count (dose: 1500.0 mg/kg/injection, schedule: Q01DX001 (ip), vehicle: other) was 0 of 6.

`CCC1CC(O)c2c(O)c3c(c(O)c2C1O)C(=O)c1cccc(O)c1C3=O` (centres undefined) (tested in a mixture with another compound) was tested, and the survivor count (dose: 1.0 mg/kg/injection, schedule: Q01DX015 (ip), vehicle: carboxymethylcellulose (CMC)) was 5 of 6, the survivor count (dose: 2.0 mg/kg/injection, schedule: Q01DX015 (ip), vehicle: carboxymethylcellulose (CMC)) was 4 of 6 and the survivor count (dose: 3.12 mg/kg/injection, schedule: Q01DX015 (ip), vehicle: carboxymethylcellulose (CMC)) was 1 of 6. The survivor count (dose: 6.25 mg/kg/injection, schedule: Q01DX001 (ip), vehicle: carboxymethylcellulose (CMC)) was 2 of 6, the survivor count (dose: 6.25 mg/kg/injection, schedule: Q01DX015 (ip), vehicle: carboxymethylcellulose (CMC)) was 0 of 6 and the survivor count (dose: 12.5 mg/kg/injection, schedule: Q01DX001 (ip), vehicle: carboxymethylcellulose (CMC)) was 0 of 6. The survivor count (dose: 12.5 mg/kg/injection, schedule: Q01DX015 (ip), vehicle: carboxymethylcellulose (CMC)) was 0 of 6, the survivor count (dose: 25.0 mg/kg/injection, schedule: Q01DX001 (ip), vehicle: carboxymethylcellulose (CMC)) was 0 of 6 and the survivor count (dose: 25.0 mg/kg/injection, schedule: Q01DX015 (ip), vehicle: carboxymethylcellulose (CMC)) was 0 of 6. For the same compound, the survivor count (dose: 50.0 mg/kg/injection, schedule: Q01DX001 (ip), vehicle: carboxymethylcellulose (CMC)) was 0 of 4, the survivor count (dose: 50.0 mg/kg/injection, schedule: Q01DX015 (ip), vehicle: carboxymethylcellulose (CMC)) was 0 of 6 and the survivor count (dose: 100.0 mg/kg/injection, schedule: Q01DX001 (ip), vehicle: carboxymethylcellulose (CMC)) was 0 of 4. For the same compound, the survivor count (dose: 100.0 mg/kg/injection, schedule: Q01DX015 (ip), vehicle: carboxymethylcellulose (CMC)) was 0 of 6, the survivor count (dose: 200.0 mg/kg/injection, schedule: Q01DX001 (ip), vehicle: carboxymethylcellulose (CMC)) was 0 of 4 and the survivor count (dose: 200.0 mg/kg/injection, schedule: Q01DX015 (ip), vehicle: carboxymethylcellulose (CMC)) was 0 of 6. The survivor count (dose: 400.0 mg/kg/injection, schedule: Q01DX001 (ip), vehicle: carboxymethylcellulose (CMC)) was 0 of 4 and the survivor count (dose: 400.0 mg/kg/injection, schedule: Q01DX015 (ip), vehicle: carboxymethylcellulose (CMC)) was 0 of 6.

`NC(CCC(=O)NC(CSC(c1ccccc1)(c1ccccc1)c1ccc(F)cc1)C(=O)NCC(=O)O)C(=O)O` (centres undefined) was tested, and the T/C (dose: 100.0 mg/kg/injection, schedule: Q01DX009 (ip), vehicle: other) was 127 % of control, the T/C [1] was 127 % of control and the T/C (dose: 200.0 mg/kg/injection, schedule: Q01DX009 (ip), vehicle: other) was 130 % of control. For the same compound, the survivor count (dose: 400.0 mg/kg/injection, schedule: Q01DX009 (ip), vehicle: other) was 5 of 6.

With `NC(CSS(=O)(=O)O)=NCc1cccnc1` the survivor count (dose: 400.0 mg/kg/injection, schedule: Q04DX002 (ip), vehicle: Klucel (hydroxypropylcellulose) (HPC)) was 0 of 3.

With `O=C1O/C(=C/c2ccccc2)C(O)=C1c1ccccc1` the survivor count [2] was 3 of 3.

`N#CCCCN1CCCCCC1` was tested, and the survivor count [1] was 3 of 6.

For `NC(=O)c1ccc([N+](=O)[O-])s1`, the survivor count (dose: 200.0 mg/kg/injection, schedule: Q04DX003 (ip), vehicle: Klucel (hydroxypropylcellulose) (HPC)) was 0 of 6 and the survivor count (dose: 400.0 mg/kg/injection, schedule: Q04DX003 (ip), vehicle: Klucel (hydroxypropylcellulose) (HPC)) was 0 of 6.

With `COC1CN(C(C)(C)C)C1` the survivor count (dose: 200.0 mg/kg/injection, schedule: Q04DX003 (ip), vehicle: saline) was 0 of 6 and the survivor count [3] was 0 of 6.

In the case of `O=Nc1c(-c2c[nH]c3ccccc23)[nH]c2ccccc12`, the survivor count [4] was 0 of 4 and the survivor count [5] was 0 of 4.

`COC1CCC2CC3C4Cc5cn[nH]c5C5OC1C2C54CCN3C` (centres undefined) was tested, and the survivor count [3] was 6 of 6.

For `Nc1nc(SN=Nc2ccc(S(N)(=O)=O)cc2)c2[nH]cnc2n1`, the T/C (dose: 0.31 mg/kg/injection, schedule: Q01DX Z (ip), vehicle: other) was 125 % of control, the T/C (dose: 0.63 mg/kg/injection, schedule: Q01DX Z (ip), vehicle: other) was 141 and 142 % of control and the T/C (dose: 1.25 mg/kg/injection, schedule: Q01DX Z (ip), vehicle: other) was 142 % of control. The T/C (dose: 2.5 mg/kg/injection, schedule: Q01DX Z (ip), vehicle: other) was 145 % of control, the T/C (dose: 3.0 mg/kg/injection, schedule: Q04DX003 (ip), vehicle: saline with Tween-80) was 137 % of control and the T/C (dose: 5.0 mg/kg/injection, schedule: Q01DX Z (ip), vehicle: other) was 134 % of control. For the same compound, the T/C (dose: 6.0 mg/kg/injection, schedule: Q04DX003 (ip), vehicle: saline with Tween-80) was 139 % of control, the T/C (dose: 7.0 mg/kg/injection, schedule: Q01DX Z (ip), vehicle: other) was 147 % of control and the T/C (dose: 11.0 mg/kg/injection, schedule: Q01DX Z (ip), vehicle: other) was 143 % of control. For the same compound, the T/C (dose: 12.5 mg/kg/injection, schedule: Q04DX003 (ip), vehicle: saline with Tween-80) was 145 % of control [5 of 6 alive], the T/C (dose: 17.0 mg/kg/injection, schedule: Q01DX Z (ip), vehicle: other) was 142 and 148 % of control and the T/C (dose: 25.0 mg/kg/injection, schedule: Q04DX003 (ip), vehicle: saline with Tween-80) was 147 % of control. The T/C (dose: 26.0 mg/kg/injection, schedule: Q01DX Z (ip), vehicle: other) was 134 % of control, the T/C (dose: 34.0 mg/kg/injection, schedule: Q01DX Z (ip), vehicle: other) was 130 and 134 % of control and the T/C (dose: 50.0 mg/kg/injection, schedule: Q04DX003 (ip), vehicle: saline with Tween-80) was 140 % of control. The T/C (dose: 100.0 mg/kg/injection, schedule: Q04DX003 (ip), vehicle: saline with Tween-80) was 142 % of control.

`Nc1cc(SC(c2ccccc2)c2ccccc2)c(N)c(N)n1` was tested, and the survivor count (dose: 300.0 mg/kg/injection, schedule: Q01DX001 (ip), vehicle: DMSO) was 0 of 3.

With `CCC#CC#CCC` the survivor count (dose: 200.0 mg/kg/injection, schedule: Q01DX009 (ip), vehicle: saline) was 0 of 6 and the survivor count (dose: 300.0 mg/kg/injection, schedule: Q01DX009 (ip), vehicle: saline) was 0 of 6.

In the case of `Nc1nnnc2c1ncn2C1OC(CO)C(O)C1O` (centres undefined), the T/C (dose: 8.0 mg/kg/injection, schedule: Q01DX009 (ip), vehicle: saline) was 125 % of control, the T/C (dose: 23.0 mg/kg/injection, schedule: Q01DX009 (ip), vehicle: saline) was 129 % of control and the T/C (dose: 150.0 mg/kg/injection, schedule: Q01DX001 (ip), vehicle: saline) was 128 % of control.

`CSc1ccc(NC(=O)Oc2cc3ccccc3cc2C(=O)Nc2ccccc2)cc1` was tested, and the survivor count [2] was 3 of 3.

In the case of `CS/C(N)=N/N`, the survivor count (dose: 50.0 mg/kg/injection, schedule: Q04DX003 (ip), vehicle: saline) was 1 of 6 and the survivor count (dose: 100.0 mg/kg/injection, schedule: Q01DX001 (ip), vehicle: saline) was 0 of 3.

With `Nc1nc(N)c2cc(CCc3ccc(C(=O)NC(CCC(=O)O)C(=O)O)cc3)ccc2n1` (centres undefined) the T/C (dose: 313.0 micrograms/kg/injection, schedule: Q01DX009 (ip), vehicle: Klucel (hydroxypropylcellulose) (HPC)) was 128 % of control.

With `COCc1nnc2ncnc(OC)c2n1` the survivor count [4] was 0 of 6 and the survivor count [5] was 0 of 6.
